The values that follow come from article PMC5177622, “Multivalent Histone and DNA Engagement by a PHD/BRD/PWWP Triple Reader Cassette Recruits ZMYND8 to K14ac-Rich Chromatin” (Cell Reports, 2016).

Chains of the proteins cited; added tags and fusions are not shown. Chains listed by the source or under a name are the forms on record and can include a tag or linker. Residues count along the entry.
UniProt Q9ULU4, 83-406 R96A/K233A/K239A/K243A: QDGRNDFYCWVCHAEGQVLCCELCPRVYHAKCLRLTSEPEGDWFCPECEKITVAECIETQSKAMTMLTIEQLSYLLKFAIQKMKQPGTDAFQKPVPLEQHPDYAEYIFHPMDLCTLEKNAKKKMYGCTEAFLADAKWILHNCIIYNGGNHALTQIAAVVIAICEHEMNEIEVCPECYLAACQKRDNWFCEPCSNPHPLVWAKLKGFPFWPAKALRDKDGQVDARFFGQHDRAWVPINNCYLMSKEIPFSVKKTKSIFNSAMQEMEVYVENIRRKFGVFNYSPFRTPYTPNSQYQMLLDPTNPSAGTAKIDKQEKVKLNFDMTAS
UniProt Q9ULU4, 83-406 K284A/K286A/K334A: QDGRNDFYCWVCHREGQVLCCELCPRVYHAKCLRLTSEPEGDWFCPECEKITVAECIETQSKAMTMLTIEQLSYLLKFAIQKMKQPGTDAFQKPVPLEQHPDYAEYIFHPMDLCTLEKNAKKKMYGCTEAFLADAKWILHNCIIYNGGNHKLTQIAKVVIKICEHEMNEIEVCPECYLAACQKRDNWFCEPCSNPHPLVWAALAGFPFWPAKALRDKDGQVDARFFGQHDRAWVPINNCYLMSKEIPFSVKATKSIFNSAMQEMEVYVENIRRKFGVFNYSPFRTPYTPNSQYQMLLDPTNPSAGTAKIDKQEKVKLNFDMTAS
ZMYND8 PHD/BRD/PWWP cassette WT (human), one chain, as listed by the source: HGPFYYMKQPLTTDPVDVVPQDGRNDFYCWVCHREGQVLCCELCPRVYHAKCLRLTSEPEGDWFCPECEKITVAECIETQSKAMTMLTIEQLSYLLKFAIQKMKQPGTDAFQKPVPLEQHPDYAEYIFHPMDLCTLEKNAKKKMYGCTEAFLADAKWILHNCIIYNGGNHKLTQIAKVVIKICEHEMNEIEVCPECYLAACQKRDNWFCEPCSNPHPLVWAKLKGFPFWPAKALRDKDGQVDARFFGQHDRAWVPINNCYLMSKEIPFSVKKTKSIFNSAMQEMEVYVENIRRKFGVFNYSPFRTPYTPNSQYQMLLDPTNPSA

Experiment in all cases: EMSA
Background: In EMSA bound probe runs differently from free probe, usually more slowly.

Data set [1] has as its target ZMYND8 cassette PHD/BRD DNA-face mutant (RKKK/AAAA) R96A,K233A,K239A,K243A (human) (UniProt Q9ULU4). The conditions noted are these: EMSA binding buffer; probes annealed in 1x React buffer 3 (Invitrogen); recombinant protein; label: radioactive.
Data set [2] concerns ZMYND8 PHD/BRD/PWWP cassette WT (human). The conditions noted are these: EMSA binding buffer; probes annealed in 1x React buffer 3 (Invitrogen); recombinant protein; residues 83-406; label: radioactive.
The target in data set [3] is ZMYND8 cassette PWWP DNA-face mutant (KKK/AAA) K284A,K286A,K334A (human) (UniProt Q9ULU4). The note with it: EMSA binding buffer; probes annealed in 1x React buffer 3 (Invitrogen); recombinant protein; label: radioactive.

Construct, isoform or probe ends are uncertain for at least one entry. For part of these data: No signal at the amounts used counts as a negative.

As for “CATGGCGGGGCCCCGCGACGCGGCTGCCTGCGGGGTGCATG (double strand) [GC-rich probe]”, the binding result is on record as “no binding” in data set [1], “binds” in data set [2] and “no binding” in data set [3].
“CATGTTTTAATAGTATCTGCAATTTGTAATATGTCTACATG (double strand) [AT-rich probe]”: the binding result in data set [1] is “no binding”; in data set [2] it was “binds”; in data set [3], “no binding”.
